# According to the supplement of paper PMC8728848:
# Some of the results follow.
# Tests used:
# Assay in all cases: glycan array binding signal (z-score within array); higher = stronger binding
# Settings in all cases: glycan notation: IUPAC condensed, linker removed
# [1] = target: Kdn(a2-3)Gal(b1-3)GlcNAc
# In short: (§1)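 Negative Z-scores can be read as non-binding. The Z-score is calculated within each array and then averaged across arrays of one protein sequence at different concentrations or buffers and across linkers. Arrays, 3228 in all, were curated from the Consortium for Functional Glycomics database and kept only where the protein sequence was available.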
# [2] = target: Kdn(a2-3)Gal(b1-4)Glc
# In short: as §1
# [3] = target: Kdn(a2-3)Gal(b1-4)GlcNAc
# In short: as §1
# [4] = target: Kdn(a2-3)Gal(b1-4)[Fuc(a1-3)]GlcNAc
# In short: as §1
# [5] = target: Kdn(a2-6)Gal(b1-4)GlcNAc
# In short: as §1
# [6] = target: Man(a1-2)Man(a1-2)Man(a1-3)Man
# In short: as §1
# [7] = target: Man(a1-2)Man(a1-2)Man(a1-6)[Man(a1-3)]Man
# In short: as §1
# [8] = target: Man(a1-2)Man(a1-3)Man
# In short: as §1
# [9] = target: Man(a1-2)Man(a1-3)[Man(a1-2)Man(a1-6)]Man
# In short: as §1
# [10] = target: Man(a1-2)Man(a1-3)[Man(a1-2)Man(a1-6)]Man(a1-6)[Man(a1-2)Man(a1-2)Man(a1-3)]Man
# In short: as §1
# [11] = target: Man(a1-2)Man(a1-3)[Man(a1-2)Man(a1-6)]Man(a1-6)[Man(a1-2)Man(a1-2)Man(a1-3)]Man(b1-4)GlcNAc(b1-4)GlcNAc
# In short: as §1
# [12] = target: Man(a1-2)Man(a1-3)[Man(a1-6)]Man(a1-6)[Man(a1-2)Man(a1-3)]Man(b1-4)GlcNAc(b1-4)GlcNAc
# In short: as §1
# [13] = target: Man(a1-2)Man(a1-6)[Man(a1-3)]Man(a1-6)[Man(a1-2)Man(a1-2)Man(a1-3)]Man
# In short: as §1
# [14] = target: Man(a1-2)Man(a1-6)[Man(a1-3)]Man(a1-6)[Man(a1-2)Man(a1-2)Man(a1-3)]Man(b1-4)GlcNAc(b1-4)GlcNAc
# In short: as §1
# [15] = target: Man(a1-3)[Man(a1-6)]Man
# In short: as §1
# [16] = target: Man(a1-3)[Man(a1-6)]Man(a1-6)[Man(a1-2)Man(a1-3)]Man(b1-4)GlcNAc(b1-4)GlcNAc
# In short: as §1
# [17] = target: Man(a1-3)[Man(a1-6)]Man(a1-6)[Man(a1-3)]Man
# In short: as §1
# [18] = target: Man(a1-3)[Man(a1-6)]Man(a1-6)[Man(a1-3)]Man(b1-4)GlcNAc(b1-4)GlcNAc
# In short: as §1
# [19] = target: Man(a1-3)[Man(a1-6)]Man(b1-4)GlcNAc(b1-4)GlcNAc
# In short: as §1
# [20] = target: Man(a1-3)[Man(a1-6)]Man(b1-4)GlcNAc(b1-4)[Fuc(a1-6)]GlcNAc
# In short: as §1
# [21] = target: Man(a1-6)Man
# In short: as §1
# [22] = target: Man(b1-4)GlcNAc
# In short: as §1
# [23] = target: MurNAc(b1-4)GlcNAc
# In short: as §1
# [24] = target: Neu5Ac(a2-3)Gal
# In short: as §1
# [25] = target: Neu5Ac(a2-3)Gal(b1-3)GalNAc
# In short: as §1
# [26] = target: Neu5Ac(a2-3)Gal(b1-3)GalNAc(b1-3)Gal(a1-4)Gal(b1-4)Glc
# In short: as §1
# [27] = target: Neu5Ac(a2-3)Gal(b1-3)GalNAc(b1-4)[Neu5Ac(a2-3)]Gal(b1-4)Glc
# In short: as §1
# [28] = target: Neu5Ac(a2-3)Gal(b1-3)GalNAc(b1-4)[Neu5Ac(a2-8)Neu5Ac(a2-3)]Gal(b1-4)Glc
# In short: as §1
# [29] = target: Neu5Ac(a2-3)Gal(b1-3)GalNAc6S
# In short: as §1
# [30] = target: Neu5Ac(a2-3)Gal(b1-3)GlcNAc
# In short: as §1
# [31] = target: Neu5Ac(a2-3)Gal(b1-3)GlcNAc(b1-2)Man
# In short: as §1
# [32] = target: Neu5Ac(a2-3)Gal(b1-3)GlcNAc(b1-2)Man(a1-3)[GlcNAc(b1-4)][Neu5Ac(a2-3)Gal(b1-3)GlcNAc(b1-2)Man(a1-6)]Man(b1-4)GlcNAc(b1-4)GlcNAc
# In short: as §1
# [33] = target: Neu5Ac(a2-3)Gal(b1-3)GlcNAc(b1-2)Man(a1-3)[Neu5Ac(a2-3)Gal(b1-3)GlcNAc(b1-2)Man(a1-6)]Man(b1-4)GlcNAc(b1-4)GlcNAc
# In short: as §1
# [34] = target: Neu5Ac(a2-3)Gal(b1-3)GlcNAc(b1-3)Gal(b1-3)GlcNAc
# In short: as §1
# [35] = target: Neu5Ac(a2-3)Gal(b1-3)GlcNAc(b1-3)Gal(b1-4)GlcNAc
# In short: as §1
# [36] = target: Neu5Ac(a2-3)Gal(b1-3)GlcNAc(b1-3)GalNAc
# In short: as §1
# [37] = target: Neu5Ac(a2-3)Gal(b1-3)GlcNAc(b1-4)Gal(b1-4)Glc
# In short: as §1
# [38] = target: Neu5Ac(a2-3)Gal(b1-3)GlcNAc(b1-6)GalNAc
# In short: as §1
binder,measurement,setting,value
"AT3G09350(27) (Arabidopsis thaliana), Q84J81 (protein) MAKDGPNWDGLLKWSLSHADGTRPTRQLSEEDRKWFMEAMQSQTVDVVKRMKEITLVMQTPEQVLVEHGVTPEDIQDLLDELQEHVESIDMANDLHSIGGLVPLLSFLKNSHANIRAKAADVVSTIVQNNPRSQELVMETNALESLLSNFTSDTDIHARTQALGAISSLIRHNKPGVTAFKLANGYAGLRDALASDSVRFQRKALNLLQYLLQEDDSDRSIATGLGFPRVMMHLASSDDAEIREAALRGLLELSREKNDGSSSIDKSDEKLRQLLEERIKGITLMSQEDLETVKEERQLVDLLWSICYNEPSSLREKGLVVLPGEDALPPDVASKLFEPPLRASAANRNATEKKDEPMKLLGP",glycan array binding signal (z-score),[1],-0.248
same,glycan array binding signal (z-score),[2],0.722
same,glycan array binding signal (z-score),[3],0.155
same,glycan array binding signal (z-score),[4],1.28
same,glycan array binding signal (z-score),[5],-0.342
same,glycan array binding signal (z-score),[6],-0.551
same,glycan array binding signal (z-score),[7],0.055
same,glycan array binding signal (z-score),[8],-0.372
same,glycan array binding signal (z-score),[9],-0.228
same,glycan array binding signal (z-score),[10],-0.612
same,glycan array binding signal (z-score),[11],-0.298
same,glycan array binding signal (z-score),[12],0.32
same,glycan array binding signal (z-score),[13],-0.582
same,glycan array binding signal (z-score),[14],-0.956
same,glycan array binding signal (z-score),[15],0.427
same,glycan array binding signal (z-score),[16],-1.14
same,glycan array binding signal (z-score),[17],0.106
same,glycan array binding signal (z-score),[18],-0.052
same,glycan array binding signal (z-score),[19],0.06
same,glycan array binding signal (z-score),[20],-0.176
same,glycan array binding signal (z-score),[21],0.59
same,glycan array binding signal (z-score),[22],0.136
same,glycan array binding signal (z-score),[23],-1.12
same,glycan array binding signal (z-score),[24],-0.483
same,glycan array binding signal (z-score),[25],-0.387
same,glycan array binding signal (z-score),[26],0.007
same,glycan array binding signal (z-score),[27],0.721
same,glycan array binding signal (z-score),[28],-0.601
same,glycan array binding signal (z-score),[29],-0.398
same,glycan array binding signal (z-score),[30],-0.447
same,glycan array binding signal (z-score),[31],-0.592
same,glycan array binding signal (z-score),[32],-0.8
same,glycan array binding signal (z-score),[33],-0.267
same,glycan array binding signal (z-score),[34],-0.473
same,glycan array binding signal (z-score),[35],0.71
same,glycan array binding signal (z-score),[36],0.16
same,glycan array binding signal (z-score),[37],-0.46
same,glycan array binding signal (z-score),[38],-0.837

# Quoted at random: two entries already listed.
binder,measurement,setting,value
"AT3G09350(27) (Arabidopsis thaliana), Q84J81 (protein) MAKDGPNWDGLLKWSLSHADGTRPTRQLSEEDRKWFMEAMQSQTVDVVKRMKEITLVMQTPEQVLVEHGVTPEDIQDLLDELQEHVESIDMANDLHSIGGLVPLLSFLKNSHANIRAKAADVVSTIVQNNPRSQELVMETNALESLLSNFTSDTDIHARTQALGAISSLIRHNKPGVTAFKLANGYAGLRDALASDSVRFQRKALNLLQYLLQEDDSDRSIATGLGFPRVMMHLASSDDAEIREAALRGLLELSREKNDGSSSIDKSDEKLRQLLEERIKGITLMSQEDLETVKEERQLVDLLWSICYNEPSSLREKGLVVLPGEDALPPDVASKLFEPPLRASAANRNATEKKDEPMKLLGP",glycan array binding signal (z-score),[5],-0.342
same,glycan array binding signal (z-score),[6],-0.551
